# From patent US20240336610A1, “3CL PROTEASE SMALL-MOLECULE INHIBITOR FOR TREATING OR PREVENTING CORONAVIRUS INFECTION, AND USE THEREOF” (THE GLOBAL HEALTH DRUG DISCOVERY INSTITUTE, priority 2021, published 2024)
# Test system: Hela-ACE cells
# Assay: Toxicity testing in uninfected cells
# Settings: read-out: Uninfected Hela-ACE CC50, 48 hours, Cell-Titer Glo
smiles,measurement,value
CC(C)(C)OC(=O)N[C@H](C(=O)N1C[C@H]2[C@@H]([C@H]1C(=O)NC(C#N)c1cncc(C(F)(F)F)c1)C2(C)C)C(C)(C)C (stereo partly shown),CC50,> 39.8 µM

# The structures given here were assigned with low confidence; some may be wrong.
